Test results: PubChem BioAssay AID2685 (National Center for Advancing Translational Sciences (NCATS), 2010)
The other results are listed elsewhere or left out. Further columns of the screen follow, without active or inactive calls. Compounds called inactive in the main read-out are mostly missing here. Potencies come from curve fits of mixed quality, noted in brackets.

Test: qHTS Assay for Lipid Storage Modulators in Drosophila S3 Cells;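 on cell number change: cells counted by Cell Tracker Red CMTPX staining in the red channel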
Conditions: BODIPY lipid droplet fluorescence, 18-24 h; for cell number change: measured here: cell count max response, cells fed with added oleic acid
How it was run: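 Drosophila S3 cells loaded with oleic acid (400 uM, as added) and compounds at several concentrations; lipid droplets imaged by 488-nm laser-scanning cytometry, 500–530 nm intensity and object ratio to cell channel. Percent activity normalized to 20 uM Triacsin C.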

[1] = measured here: cell number channel AC50, cells fed with added oleic acid
[2] = measured here: lipid fluorescence (Fed channel) AC50, cells fed with added oleic acid

| SMILES | cell number change | AC50 [1] | AC50 [2] |
| --- | --- | --- | --- |
| CC1CCN(S(=O)(=O)c2cccc(C(=O)Nc3nncs3)c2)CC1 | -7.76% | 6.51 µM [rising, single point] | 6.51 µM [rising, single point] |
| N#Cc1cccc(NC(=O)Cn2cnc(S(=O)(=O)N3CCCCC3)c2)c1 | -12.7% | – | 7.31 µM [falling, partial curve] |
| NS(=O)(=O)c1cc(C(=O)OCC(=O)N2CCc3ccccc3C2)ccc1Cl | 10% | – | 18.4 µM [rising, single point] |
| CC1(C)CN2C(=O)c3ccccc3C2(C)S1 (stereo not drawn) | -57.4% | 29.1 µM [falling, single point] | 0.58 µM [falling, single point] |
| CN(C(=O)C1CCN(c2ncnc3c2nc2n3CCCCC2)CC1)C1CCCCC1 | -32.8% | – | 29.1 µM [falling, single point] |
| O=C(Cn1ncc2c(=O)oc3ccccc3c21)NCCc1ccsc1 | 29.3% | – | 10.3 µM [rising, partial curve] |
| Cc1ccc(CNC(=O)CCn2cc(-c3ccc(C)cc3)nc2CCN)cc1 | 12.6% | – | 0.13 µM [falling, full curve, poor fit] |
| Cc1cc(/C=C(\C#N)c2nc3ccccc3[nH]2)c(C)n1C | 17.8% | – | 1.03 µM [rising, full curve] |
| CCN(CC(=O)Nc1c(F)cccc1F)C(=O)c1cc2c(cc1Cl)N1CCCCCC1=NS2(=O)=O | -6.5% | – | – |
| O=C(N/C(=C\c1cccc([N+](=O)[O-])c1)C(=O)N1CCOCC1)c1ccco1 | 44.4% | 9.2 µM [rising, partial curve] | 5.17 µM [rising, full curve] |
| Cc1cc(NC(=O)CSc2ccc3c(c2)OCCO3)no1 | 19.9% | – | 0.206 µM [rising, full curve, poor fit] |
| Cc1cccc(S(=O)(=O)N2CN(Cc3ccco3)c3nc4ccccc4nc32)c1 | -6.7% | – | 0.461 µM [falling, full curve, poor fit] |
| COc1ccc(NC(C)=O)cc1C | -41.3% | 18.4 µM [falling, single point] | 18.4 µM [falling, single point] |
| O=C(c1ccccc1)c1ccc(OC(=O)C2CCCCC2)cc1 | -15.3% | – | 29.1 µM [falling, single point] |
| COc1ccc(C(=O)Nc2ccnn2C2CCN(C(=O)CCC(F)(F)F)CC2)cc1 | -13.1% | – | – |
| CCc1noc(C)c1C(=O)OC(C)C(=O)Nc1ccc(Cl)cn1 (stereo not drawn) | 31.2% | 1.03 µM [rising, full curve, poor fit] | 2.91 µM [rising, partial curve, poor fit] |
| O=C(NCCC1=CCCCC1)C(=O)NCC1OCCCN1S(=O)(=O)c1cc(F)ccc1F (stereo not drawn) | -74.7% | 0.92 µM [falling, full curve] | – |
| COc1cc(/C=C(/C#N)c2ccc(F)cc2)ccc1OCc1ccc(C(=O)O)o1 | -0.331% | – | 6.51 µM [rising, single point] |
| COc1cc(OC)c(-c2nc3cnccc3n2C)cc1OC | 92.3% | 29.1 µM [rising, single point] | 6.51 µM [falling, single point] |
| O=C(O)c1ccc2nc3c(nc2c1)-c1ccccc1C3=O | 26.6% | 4.11 µM [rising, single point] | – |

| SMILES | cell number change | AC50 [1] | AC50 [2] |
| --- | --- | --- | --- |
| Cc1cc(C)nc(SC2CC(=O)N(c3ccc(C)c(C)c3)C2=O)n1 (stereo not drawn) | -4.95% | – | 29.1 µM [rising, single point] |
| Cc1c(C(=O)C(=O)NCCCn2ccnc2)c2ccccc2n1C | -33.4% | 20.6 µM [falling, single point] | 8.2 µM [falling, partial curve] |
| COc1ccccc1CNC(=O)c1cccc(-c2ccc(C)c3ccccc23)n1 | 18.9% | – | 4.11 µM [rising, partial curve] |
| CCC(CC)C(=O)Nc1cccc(S(=O)(=O)c2cccc(NC(=O)C(CC)CC)c2)c1 | 6.77% | – | 0.00461 µM [rising, full curve, poor fit] |
| O=C(CN(C(=O)CNC(=O)c1ccco1)c1cccc(F)c1)NC1CCCCC1 | 15.4% | – | – |
| Cc1ccc(NC2=NCC(=O)N2Cc2ccc3c(c2)OCO3)cc1 | 8.53% | – | 1.84 µM [rising, full curve] |
| Brc1ccc(COc2ncnc3ccccc23)cc1 | – | 5.8 µM [rising, single point] | 5.17 µM [rising, single point] |
| COc1ccc(N(CC(=O)NC2CC2)S(=O)(=O)c2ccccc2)cc1 | -6.58% | – | – |
| CC(=O)NC(c1ccco1)c1cc(Cl)c2cccnc2c1O (stereo not drawn) | 36.2% | 14.6 µM [rising, single point] | 18.4 µM [rising, partial curve] |
| CCn1cnc2c1c(=O)n(Cc1cccc(Br)c1)c(=O)n2Cc1ccccc1 | 16.1% | – | – |
| Cc1cccc(-n2c(SCc3cc(=O)n4ccsc4n3)nc3ccccc3c2=O)c1 | 10.5% | 0.92 µM [rising, partial curve] | 2.59 µM [rising, partial curve] |
| COc1ccc(CNC(=O)Cn2cncn2)cc1OC | 20.9% | – | – |
| Cc1ccc(OCC(=O)Nc2ccc(C(=O)O)cc2NC(=O)COc2ccc(C)c(C)c2)cc1C | 16.8% | – | 29.1 µM [rising, single point] |
| CS(=O)(=O)N1CCCC(C(=O)Nc2ccc(F)cc2F)C1 (stereo not drawn) | -61.3% | 29.1 µM [falling, single point] | 23.1 µM [falling, single point] |
| CCCOc1ccccc1NC(=O)c1ccc(N)cc1 | – | 0.461 µM [rising, full curve] | 0.58 µM [rising, full curve] |
| COC(=O)C1=CN(CCCN2CCCC2=O)C=C(C(=O)OC)C1c1ccccc1C(F)(F)F | -17.4% | – | – |
| O=C(NC(Cc1ccccc1)C(=O)N1CCCCCC1)c1ccccc1 (stereo not drawn) | -6.49% | – | 1.3 µM [rising, full curve] |
| Cc1cc(=O)oc2cc(NC(=O)c3ccccc3OC(F)F)ccc12 | -17.9% | – | 0.58 µM [falling, partial curve, poor fit] |
| O=C(NC(Cc1ccccc1)C(=O)O)/C(=C/c1ccc([N+](=O)[O-])cc1)NC(=O)c1ccc(Br)o1 (stereo not drawn) | 32.9% | – | – |
| COc1ccc(-c2nc(SCC(=O)N3CCCC3)n[nH]2)cc1 | 26.9% | – | 0.206 µM [rising, partial curve, poor fit] |

| SMILES | cell number change | AC50 [1] | AC50 [2] |
| --- | --- | --- | --- |
| O=C(O)c1cccc(S(=O)(=O)NNc2ccccc2C(F)(F)F)c1 | 55.1% | 29.1 µM [rising, single point] | 5.17 µM [rising, single point] |
| Cc1ccc2c(c1)c1c3n2CCN(C(=O)Cn2c(-c4ccccc4)noc2=O)C3CCC1 (stereo not drawn) | -16.5% | – | – |
| COC(=O)c1ccccc1NC(=O)Cn1c(CCC(=O)O)ccc1-c1cccs1 | 20.4% | 1.84 µM [rising, full curve, poor fit] | 4.11 µM [rising, partial curve] |
| CCc1ccccc1NC(=O)CN(C)S(=O)(=O)c1ccc2c(c1)c(=O)n(C)c(=O)n2C | 40% | 29.1 µM [rising, single point] | 29.1 µM [rising, partial curve, poor fit] |
| O=C(Oc1ccc(-c2cnc3ccccc3n2)cc1)c1cccc([N+](=O)[O-])c1 | 13.5% | 2.59 µM [rising, single point] | 29.1 µM [falling, single point] |
| CCn1cc(CN2CCC(n3nccc3NC(=O)c3ccccc3C)CC2)cn1 | -3.47% | – | – |
| CC(NC(=O)c1ccccc1)c1nnc(SCc2nc3ccccc3c(=O)[nH]2)n1C (stereo not drawn) | 7.06% | – | 6.51 µM [falling, single point] |
| O=Cc1ccc(OCCOc2ccc([N+](=O)[O-])cc2)cc1 | -14.6% | – | 1.84 µM [rising, partial curve, poor fit] |
| N#CCCN(/N=C/c1cccnc1)C1=NS(=O)(=O)c2ccccc21 | – | 0.58 µM [rising, partial curve] | 0.58 µM [rising, partial curve] |
| COc1ccc(NC(=S)NCCCN2CCN(C3CCCCC3)CC2)cc1 | 7.95% | – | 32.6 µM [rising, single point] |
| Cc1ccc(CNS(=O)(=O)c2c(C(=O)N3CCCCC3)c(C)n(C)c2C)o1 | 22% | 2.06 µM [rising, partial curve, poor fit] | – |
| CCOc1ccc(NC(=O)COC(=O)Cc2ccc(S(=O)(=O)N3CCOCC3)s2)cc1 | 83.1% | 29.1 µM [rising, single point] | – |
| COc1ccc2sc(-c3ccc(N(C)C)cc3)c(C#CCO)c2c1 | -53% | 5.8 µM [falling, single point] | – |
| CCCc1c(C(=O)OCC)[nH]c2c1C(=O)CCC2 | 14.3% | – | – |
| O=C(CSc1nc(=O)n(CCCN2CCOCC2)c2c1CCC2)Nc1ccc(F)cc1F | – | 0.461 µM [rising, single point] | – |
| COc1ccc(N2C(=NC(=O)C3CCCCC3)SC3CS(=O)(=O)CC32)cc1Cl (stereo not drawn) | -0.407% | – | 6.51 µM [falling, single point] |
| O=C(CCl)NN1C(=O)NC(c2ccccc2)(c2ccccc2)C1=O | 24.4% | – | – |
| COc1ccc(NC(=O)CNC(=O)c2sc3ccccc3c2Cl)c(OC)c1 | -53% | 29.1 µM [falling, single point] | 6.51 µM [falling, partial curve] |

Quoted from the listing:
Cc1c(C(=O)C(=O)NCCCn2ccnc2)c2ccccc2n1C – cell number change: -33.4%
Brc1ccc(COc2ncnc3ccccc23)cc1 – AC50 [1]: 5.8 µM [rising, single point]
COc1cc(/C=C(/C#N)c2ccc(F)cc2)ccc1OCc1ccc(C(=O)O)o1 – cell number change: -0.331%
O=C(CCl)NN1C(=O)NC(c2ccccc2)(c2ccccc2)C1=O – cell number change: 24.4%
